The record followed here is article PMC3600747.

These are yes or no findings as the source states them, for the method shown. In cells and extracts the contact can be indirect. Some results given as binding are weak or reduced against the parent protein; the word gives no strength.

This assay has as its target T1, FOG1 (friend of GATA1) (UniProt O35615).
T1 sequence: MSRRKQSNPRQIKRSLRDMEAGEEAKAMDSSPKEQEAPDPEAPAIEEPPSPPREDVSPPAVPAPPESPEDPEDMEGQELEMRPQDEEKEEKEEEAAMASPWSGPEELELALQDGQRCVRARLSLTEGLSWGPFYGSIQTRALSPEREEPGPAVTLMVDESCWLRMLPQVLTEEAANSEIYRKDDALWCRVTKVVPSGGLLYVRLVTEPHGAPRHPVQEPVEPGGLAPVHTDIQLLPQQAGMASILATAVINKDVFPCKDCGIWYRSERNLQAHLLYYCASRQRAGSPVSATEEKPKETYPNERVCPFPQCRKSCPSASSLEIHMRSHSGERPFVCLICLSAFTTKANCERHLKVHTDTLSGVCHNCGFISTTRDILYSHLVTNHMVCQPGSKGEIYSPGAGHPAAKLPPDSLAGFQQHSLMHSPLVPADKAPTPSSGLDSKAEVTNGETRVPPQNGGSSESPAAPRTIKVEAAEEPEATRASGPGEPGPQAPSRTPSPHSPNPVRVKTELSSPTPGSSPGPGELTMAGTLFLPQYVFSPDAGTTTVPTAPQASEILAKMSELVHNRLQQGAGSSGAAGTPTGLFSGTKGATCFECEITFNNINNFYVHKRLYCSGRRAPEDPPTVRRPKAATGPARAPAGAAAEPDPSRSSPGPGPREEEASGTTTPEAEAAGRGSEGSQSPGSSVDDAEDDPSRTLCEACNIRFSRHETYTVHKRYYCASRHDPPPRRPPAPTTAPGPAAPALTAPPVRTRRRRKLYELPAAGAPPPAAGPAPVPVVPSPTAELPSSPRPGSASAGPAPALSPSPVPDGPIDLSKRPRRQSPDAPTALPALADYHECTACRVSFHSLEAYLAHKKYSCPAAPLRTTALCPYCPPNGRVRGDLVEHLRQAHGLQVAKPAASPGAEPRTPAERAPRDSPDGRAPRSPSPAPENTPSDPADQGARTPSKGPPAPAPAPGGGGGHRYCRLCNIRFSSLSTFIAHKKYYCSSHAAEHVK
Description: co-IP; Ldb1 and FOG1; cells and constructs not told.

B1: Ldb1 (as in the co-immunoprecipitation with FOG1) (protein, UniProt P70662 1-411)
chain: MSVGCACPGCSSKSFKLYSPKEPPNGNAFPPFHPGTMLDRDVGPTPMYPPTYLEPGIGRHTPYGNQTDYRIFELNKRLQNWTEECDNLWWDAFTTEFFEDDAMLTITFCLEDGPKRYTIGRTLIPRYFRSIFEGGATELYYVLKHPKEAFHSNFVSLDCDQGSMVTQHGKPMFTQVCVEGRLYLEFMFDDMMRIKTWHFSIRQHRELIPRSILAMHAQDPQMLDQLSKNITRCGLSNSTLNYLRLCVILEPMQELMSRHKTYSLSPRDCLKTCLFQKWQRMVAPPAEPARQQPSKRRKRKMSGGSTMSSGGGNTNNSNSKKKSPASTFALSSQVPDVMVVGEPTLMGGEFGDEDERLITRLENTQFDAANGIDDEDSFNNSPALGANSPWNSKPPSSQESKSENPTSQASQ
Regarding B1, the binding result is recorded as “binds”.
